Source: patent publication US11464796B2, “Nicotinamide mononucleotide derivatives and their uses” (Metro International Biotech, LLC, priority 2015, dated 2022)
“And” between values parts separate entries of the source, which are not always exact repeats. Identical values can stand only once. Counter-ions that a name gives are not always drawn. The name of at least one read-out is uncertain.

Experiments:
[1] = test system: NAD+ levels in liver; assay: NAD+ level in liver of mice after a single oral dose (LC/MS), ratio to vehicle control; assay type: in vivo; conditions: single oral gavage in PBS, generally 500 mg/ml (in some cases 250 mg/kg or ethanol/PBS/PEG400), fasted male C57/BL6 mice, Trifluoroacetate Salt; for ratio of mean NAD+ concentration in treated mice compared to vehicle control mice, 4 hr liver: 4 hr post-dose
Experimental: (§1) As the compounds disclosed herein can act as prodrugs for NMN, their biological activity was assessed in vivo by measuring the ability to elevate NAD+ levels in liver and skeletal muscle. These tissues were selected for pharmacodynamics studies due to their relevance for the treatment of metabolic diseases. In general, C57/BL6 mice were fasted from 16 hours, then administered a […] oral dose of a disclosed compound in PBS buffer by oral gavage. In some cases, the dose was 250 mg/kg or in an alternate vehicle: ethanol/PBS/PEG400 (10/30/60). After dosing, the mice were sacrificed at pre-set time points after dosing (generally 4, 8 and 24 hours). The liver and skeletal tissues were removed and flash frozen. After some period of frozen storage, tissue homogenates were prepared. The level of NAD+ was quantified using LC/MS methods.
For bioanalysis, a method of standard addition was used to quantify the NAD. Each homogenate was divided and certain aliquots had known concentrations of exogenous NAD added. The NAD present in the original sample was then calculated by linear regression. Data are presented as a ratio of mean NAD concentration in treated mouse tissues to mean NAD concentration in the vehicle control group tissues at the paired time points.
Mixtures of compound and PBS, pH 7 were formulated ˜1 hour before dosing and remained stirring until dose completion. Residual formulated test materials were stored at −20±5° C. until discarded. Naïve male C57/BL6 mice at ˜25 g at dose initiation, age as appropriate for weight were assigned to dose groups of six animals per dose. Dosing treatments were administered via a single oral gavage dose (PO) The dose volume for each animal (5 mL/kg) was based on the most recent body measurements taken the morning of dosing. Animals were fasted at least 16 hrs prior to dose, with food returned at least 4 hours post dose.
Liver and skeletal muscle were collected and analyzed for nicotinamide adenine dinucleotide (NAD) at 0, 4, 8, and 24 hours post-dose. For each mouse, the entire liver was removed, rinsed with saline, blotted dry and frozen at −70° C. to store for NAD concentration analysis. Also, the soleus skeletal muscle was removed from the gastrocnemius, rinsed with saline, blotted dry and frozen at −70° C. to store for NAD concentration analysis.
• 1. Add 5× (tissue wt.*5)mL 0.1M ZnSO4 into all tubes. • 2. Add 5× (tissue wt*5)mL Methanol into all tubes. • 3. Homogenize each sample until completely liquid. • 4. Vortex each sample. Tissue Extraction Procedure • 1. On ice, aliquot 20 μL of standards, control blanks, and matrix blanks into a 96-well plate. • 2. Aliquot 20 μL of sample into sample wells. • 3. […] The concentration of NAD+ in the tissues was determined by LC/MS. […]

[2] = test system: NAD+ levels in skeletal muscle; assay: NAD+ level in skeletal muscle of mice after a single oral dose (LC/MS), ratio to vehicle control; assay type: in vivo; conditions: soleus skeletal muscle, 4 hr post-dose; single oral gavage in PBS, generally 500 mg/ml (in some cases 250 mg/kg or ethanol/PBS/PEG400); fasted male C57/BL6 mice; Trifluoroacetate Salt
Experimental: as §1
For bioanalysis, a method of standard addition was used to quantify the NAD. Each homogenate was divided and certain aliquots had known concentrations of exogenous NAD added. The NAD present in the original sample was then calculated by linear regression. […]
Liver and skeletal muscle were collected and analyzed for nicotinamide adenine dinucleotide (NAD) at 0, 4, 8, and 24 hours post-dose. […]
• 1. […] The concentration of NAD+ in the tissues was determined by LC/MS. […]

Compound	ratio of mean NAD+ concentration in treated mice compared to vehicle control mice, 4 hr liver [1]	ratio of mean NAD+ concentration in treated mice compared to vehicle control mice, 4 hr skeletal [2]	ratio of mean NAD+ concentration in treated mice compared to vehicle control mice, 8 hr liver ([1]; 8 hr post-dose)	ratio of mean NAD+ concentration in treated mice compared to vehicle control mice, 24 hr liver ([1]; 24 hr post-dose)
NC(=O)c1ccc[n+]([C@@H]2OC(COP3(=O)OCCC(c4cccc(Cl)c4)O3)[C@@H](O)[C@H]2O)c1 (stereo partly drawn) [Compound 1, 1-((2R,3R,4S)-5-(((4-(3-Chlorophenyl)-2-oxido-1,3,2-dioxaphosphinan-2-yl)oxy)methyl)-3,4-dihydroxytetrahydrofuran-2-yl)-1λ^4-pyridine-3-carboxamide Trifluoroacetate Salt]	2.6 and 1.6 and 1.4	1.2 and 1.4 and 1.8		
CC(C)(C)C(=O)SCCOP(=O)(OCCSC(=O)C(C)(C)C)OCC1OC([n+]2cccc(C(N)=O)c2)C(O)C1O (stereo not drawn) [Compound 3, S-(1-((((5-(3-carbamoylpyridin-1(4H)-yl)-3,4-dihydroxytetrahydrofuran-2-yl)methoxy)(2-(pivaloylthio)ethoxy)phosphoryl)oxy)ethan-2-yl) 2,2-dimethylpropanethioate Trifluoroacetate Salt]	2.1 and 1.6		0.8 and 1.5 and 1.6	0.9 and 1.4 and 0.8
